Reference: US20110076272A1, “THERAPEUTIC METHODS AND COMPOSITIONS” (priority 2009, published 2011)
Results are given in words; binding and its absence hold for the method and conditions named.

Sequences of proteins named here, by UniProt entry; tags and fusion partners are left off. A change or cut given only in a name is not applied to a line headed by its entry.
UniProt Q08397: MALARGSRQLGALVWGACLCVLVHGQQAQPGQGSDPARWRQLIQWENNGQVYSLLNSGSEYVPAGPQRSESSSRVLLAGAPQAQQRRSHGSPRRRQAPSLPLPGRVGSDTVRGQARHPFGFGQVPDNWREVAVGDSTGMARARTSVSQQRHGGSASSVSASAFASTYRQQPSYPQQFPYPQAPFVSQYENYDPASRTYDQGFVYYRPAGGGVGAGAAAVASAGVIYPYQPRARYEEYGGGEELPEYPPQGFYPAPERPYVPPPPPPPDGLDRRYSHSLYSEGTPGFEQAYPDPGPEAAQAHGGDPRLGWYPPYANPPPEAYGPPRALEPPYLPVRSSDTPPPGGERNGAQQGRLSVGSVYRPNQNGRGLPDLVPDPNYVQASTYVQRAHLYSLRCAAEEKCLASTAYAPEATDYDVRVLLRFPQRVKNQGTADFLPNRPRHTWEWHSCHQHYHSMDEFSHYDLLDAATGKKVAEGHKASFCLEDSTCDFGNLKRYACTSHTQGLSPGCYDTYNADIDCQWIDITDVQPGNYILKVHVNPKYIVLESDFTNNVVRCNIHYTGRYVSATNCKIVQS

Key:
[1] = target: lysyl oxidase-like 1 (LOXL1) (UniProt Q08397); assay: Western blot probed with AB0023 [Cont. 2) panel m]
[2] = target: lysyl oxidase-like 1 (LOXL1) (UniProt Q08397); assay: Western blot and ELISA (FIG. 8, panels M, N)
[3] = target: lysyl oxidase-like 1 (LOXL1) (UniProt Q08397); assay: ELISA, AB0023 titrated on hLOXL1 [Cont. 2) panel n]

- binding [1]: no binding
- binding [2]: no binding
- binding [3]: no binding (tested: 100 nM)
B1: anti-LOXL2 monoclonal antibody AB0023 (antibody, V domains shown)
VH: QVQLQQSGAELVRPGTSVKVSCKASGYAFTYYLIEWVKQRPGQGLEWIGVINPGSGGTNYNEKFKGKATLTADKSSSTAYMQLSSLTSDDSAVYFCARNWMNFDYWGQGTTLTVSS
VL: DIVMTQAAPSVSVTPGESVSISCRSSKSLLHSNGNTYLYWFLQRPGQSPQFLIYRMSNLASGVPDRFSGSGSGTAFTLRISRVEAEDVGVYYCMQHLEYPYTFGGGTKLEIK
notes: Mouse monoclonal antibody from a hybridoma, raised against full-length LOXL2 and purified from ascites; also called mouse anti-human LOXL2 antibody; LOXL2-specific monoclonal antibody
